Laboratory results taken from doi:10.1101/2023.03.13.532326.

Biological target: His6-FcrX (S. meliloti) (UniProt Q92JY7)
Assay: pull-down

Substance: CtrA (from UniProt Q7APB9)
- binding: binds

These are yes or no findings as the source states them, for the method shown. Binding seen in cells or lysates may run through a third protein. Binding can be weak; no strength is given.
